Results as given in the supplement of paper PMC10689618.
Where a name gives a salt, the structure may show the parent alone. The list shows a part of the results. Single values are uncertain, as repeats are few or missing.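 Primary human fetal astrocytes engulfed labelled rat cortical synaptosomes, measured as a red/green ratio corrected for calcein live-cell signal and scaled to the plate median. Toxicity meant calcein falling over 30%; decreased phagocytosis meant below 70% of median above 5 µM.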

Columns and labels:
Conditions in all cases: 24 h
Human fetal astrocytes [1] = assay: loss of total cells relative to no-compound high-control median (toxicity); higher = more toxic (fewer cells)
Human fetal astrocytes [2] = assay: synaptosome phagocytosis (pHrodo/calcein intensity ratio) relative to plate median of data wells; higher = more phagocytosis
Human fetal astrocytes [3] = assay: loss of total cells relative to no-compound high-control median (toxicity); higher = more toxic (fewer cells); remark: listed apart in the source

SMILES | loss of total cells (Human fetal astrocytes [1]; 1.39 µM) [%] | loss of total cells (Human fetal astrocytes [1]; 2.78 µM) [%] | loss of total cells (Human fetal astrocytes [1]; 5.56 µM) [%] | loss of total cells (Human fetal astrocytes [1]; 11.11 µM) [%] | loss of total cells (Human fetal astrocytes [1]; 22.22 µM) [%] | synaptosome phagocytosis (Human fetal astrocytes [2]; 1.39 µM) [%] | synaptosome phagocytosis (Human fetal astrocytes [2]; 2.78 µM) [%] | synaptosome phagocytosis (Human fetal astrocytes [2]; 5.56 µM) [%] | synaptosome phagocytosis (Human fetal astrocytes [2]; 11.11 µM) [%] | synaptosome phagocytosis (Human fetal astrocytes [2]; 22.22 µM) [%] | loss of total cells (Human fetal astrocytes [3]; 1.39 µM) [%] | loss of total cells (Human fetal astrocytes [3]; 2.78 µM) [%] | loss of total cells (Human fetal astrocytes [3]; 5.56 µM) [%] | loss of total cells (Human fetal astrocytes [3]; 11.11 µM) [%] | loss of total cells (Human fetal astrocytes [3]; 22.22 µM) [%]
N[C@H](C(=O)O)c1cc(O)no1 (racemic) [(±)-Ibotenic acid] | 10 | 27.6 | -5.2 | 18.1 | 10.3 | 126 | 146 | 96.2 | 113 | 133 | – | – | – | – | –
CCCN1CCC[C@H](c2cccc(O)c2)C1 [R(+)-3PPP hydrochloride] | -15.2 | -27.8 | -17.4 | -18 | -9.9 | 108 | 116 | 119 | 106 | 116 | – | – | – | – | –
C[C@H]1OC[C@@H](C[N+](C)(C)C)O1 [(+)-cis-Dioxolane iodide] | 18 | -1.7 | -9.1 | -11.2 | -4 | 114 | 83.1 | 95.4 | 108 | 106 | – | – | – | – | –
CCN(CC)C(=O)NC1C=C2c3cccc4[nH]cc(c34)CC2N(C)C1 (stereo not drawn) [S-(-)-Lisuride] | -5.2 | -0.5 | 11.7 | 20 | -7.5 | 122 | 77.8 | 115 | 110 | 88.4 | – | – | – | – | –
C=CCN1CCC2(C)c3cc(O)ccc3CC1C2C (racemic) [(±)-N-Allylnormetazocine hydrochloride] | -22 | -14.7 | -15.2 | -13 | -0.4 | 78.8 | 65.3 | 90.3 | 73.5 | 93.4 | – | – | – | – | –
CCCC[N+]1(C)[C@@H]2C[C@@H](OC(=O)[C@H](CO)c3ccccc3)C[C@H]1[C@@H]1O[C@@H]12 (single isomer, unassigned; (-)) [(-)-Scopolamine,n-Butyl-, bromide] | 5.3 | -23.7 | -11.2 | -21.1 | -28.8 | 109 | 111 | 87 | 95.4 | 105 | – | – | – | – | –
NCCc1ccc(S(=O)(=O)F)cc1 [4-(2-Aminoethyl)benzenesulfonyl fluoride hydrochloride] | -6.6 | -9.3 | -26.3 | 0.4 | -5.6 | 102 | 125 | 82.1 | 112 | 119 | – | – | – | – | –
NC(=O)c1cc(N2CC2)c([N+](=O)[O-])cc1[N+](=O)[O-] | -15.4 | -2.7 | -8.8 | -8.5 | 13.2 | 75.9 | 102 | 95.2 | 97.2 | 94.7 | – | – | – | – | –
C#CCN(C)[C@H](C)Cc1ccccc1 [R-(-)-Deprenyl hydrochloride] | -17.5 | 18.6 | 16.4 | -6.7 | 27.1 | 118 | 116 | 127 | 109 | 117 | – | – | – | – | –
COc1ccc2c(c1)/C(=C/c1cnc[nH]1)C(=O)N2 | -14.7 | -6.8 | -3.3 | 10.5 | 8.4 | 92.7 | 63.3 | 83.6 | 79.5 | 37.5 | – | – | – | – | –
C#CCOC(=O)C1=CCCN(C)C1 [Arecaidine propargyl ester hydrobromide] | -9.5 | -20.8 | -13.4 | 26.5 | 6.4 | 122 | 79.4 | 99.1 | 96.9 | 103 | – | – | – | – | –
CNCCc1c[nH]c2ccc(O)cc12 [N-omega-Methyl-5-hydroxytryptamine oxalate salt] | -10.9 | 2.3 | 12.7 | 0 | 15.9 | 95.1 | 146 | 158 | 123 | 106 | – | – | – | – | –
COc1ccc(CNC(=O)/C=C/c2ccc3[nH]cc(CCN(C)C)c3c2)cc1 | -46.6 | -33.7 | -23.5 | -34.5 | -3.4 | 67.5 | 74.2 | 80.8 | 84.1 | 68.2 | – | – | – | – | –
C#C[C@]1(O)CC[C@H]2[C@@H]3CCC4=Cc5nc6nc7ccccc7n6cc5C[C@]4(C)[C@H]3CC[C@@]21C | -30.7 | -14.7 | -0.6 | 5.7 | -23.9 | 86.7 | 67.5 | 61.8 | 77.8 | 73.6 | – | – | – | – | –
Oc1ccc2c3c1O[C@H]1c4oc5ccccc5c4C[C@@]4(O)[C@@H](C2)N(CC2CC2)CC[C@]314 [Naltriben methanesulfonate] | -13.7 | 11.3 | 5.2 | 10.5 | 10.3 | 92.4 | 117 | 81.2 | 86.5 | 102 | – | – | – | – | –
C#CCN[C@H](C)Cc1ccccc1 [R-(-)-Desmethyldeprenyl hydrochloride] | 2.1 | -19.7 | 6.6 | 5.8 | -1.6 | 94.3 | 96.4 | 114 | 96.7 | 116 | – | – | – | – | –
CC(C)C1CNC(C(=O)O)C1CC(=O)O (stereo not given) [Dihydrokainic acid] | 5.4 | -17.9 | -4.9 | -4.9 | -0.8 | 102 | 98.4 | 131 | 120 | 90.2 | – | – | – | – | –
CC(=O)NCCc1c[nH]c2ccccc12 [N-Acetyltryptamine] | -1.5 | -9.6 | -0.5 | -17.5 | -4.9 | 74.6 | 116 | 74.2 | 106 | 95.7 | – | – | – | – | –
CN1[C@@H]2CC[C@H]1C[C@@H](OC(c1ccccc1)c1ccccc1N)C2 (stereo not given in full) [Aminobenztropine] | -17.2 | -17.1 | 0.5 | -11.2 | -6.4 | 85.3 | 86.4 | 56.6 | 73.2 | 73 | – | – | – | – | –

In another format: two of the compounds above
SMILES	loss of total cells (Human fetal astrocytes [1]; 1.39 µM) [%]	loss of total cells (Human fetal astrocytes [1]; 2.78 µM) [%]	loss of total cells (Human fetal astrocytes [1]; 5.56 µM) [%]	loss of total cells (Human fetal astrocytes [1]; 11.11 µM) [%]	loss of total cells (Human fetal astrocytes [1]; 22.22 µM) [%]	synaptosome phagocytosis (Human fetal astrocytes [2]; 1.39 µM) [%]	synaptosome phagocytosis (Human fetal astrocytes [2]; 2.78 µM) [%]	synaptosome phagocytosis (Human fetal astrocytes [2]; 5.56 µM) [%]	synaptosome phagocytosis (Human fetal astrocytes [2]; 11.11 µM) [%]	synaptosome phagocytosis (Human fetal astrocytes [2]; 22.22 µM) [%]	loss of total cells (Human fetal astrocytes [3]; 1.39 µM) [%]	loss of total cells (Human fetal astrocytes [3]; 2.78 µM) [%]	loss of total cells (Human fetal astrocytes [3]; 5.56 µM) [%]	loss of total cells (Human fetal astrocytes [3]; 11.11 µM) [%]	loss of total cells (Human fetal astrocytes [3]; 22.22 µM) [%]
NC(=O)c1cc(N2CC2)c([N+](=O)[O-])cc1[N+](=O)[O-]	-15.4	-2.7	-8.8	-8.5	13.2	75.9	102	95.2	97.2	94.7	–	–	–	–	–
C#CCN(C)[C@H](C)Cc1ccccc1 [R-(-)-Deprenyl hydrochloride]	-17.5	18.6	16.4	-6.7	27.1	118	116	127	109	117	–	–	–	–	–

Remaining list, next part.

SMILES | loss of total cells (Human fetal astrocytes [1]; 1.39 µM) [%] | loss of total cells (Human fetal astrocytes [1]; 2.78 µM) [%] | loss of total cells (Human fetal astrocytes [1]; 5.56 µM) [%] | loss of total cells (Human fetal astrocytes [1]; 11.11 µM) [%] | loss of total cells (Human fetal astrocytes [1]; 22.22 µM) [%] | synaptosome phagocytosis (Human fetal astrocytes [2]; 1.39 µM) [%] | synaptosome phagocytosis (Human fetal astrocytes [2]; 2.78 µM) [%] | synaptosome phagocytosis (Human fetal astrocytes [2]; 5.56 µM) [%] | synaptosome phagocytosis (Human fetal astrocytes [2]; 11.11 µM) [%] | synaptosome phagocytosis (Human fetal astrocytes [2]; 22.22 µM) [%] | loss of total cells (Human fetal astrocytes [3]; 1.39 µM) [%] | loss of total cells (Human fetal astrocytes [3]; 2.78 µM) [%] | loss of total cells (Human fetal astrocytes [3]; 5.56 µM) [%] | loss of total cells (Human fetal astrocytes [3]; 11.11 µM) [%] | loss of total cells (Human fetal astrocytes [3]; 22.22 µM) [%]
Clc1cccc(N2CCNCC2)c1 [1-(3-Chlorophenyl)piperazine dihydrochloride] | -26.1 | -10.8 | -5.1 | 2.2 | -1.9 | 92.1 | 109 | 119 | 136 | 102 | – | – | – | – | –
O=c1[nH]c2ccccc2n1CCCN1CCC(n2c(=O)[nH]c3cc(Cl)ccc32)CC1 [Domperidone] | 5.4 | -12 | -7.4 | -17.5 | -18.4 | 106 | 93.5 | 73.3 | 93.6 | 91.5 | – | – | – | – | –
CCN1C[C@]2(C)CC[C@H](O)[C@]34C1[C@@H](C[C@H]23)[C@@]1(O)C[C@H](OC)[C@H]2C[C@@H]4[C@@H]1[C@H]2O [Karakoline] | -6.2 | 3.2 | 4.2 | -6.7 | -3.7 | 86.7 | 98.2 | 121 | 101 | 95.4 | – | – | – | – | –
COc1cc(C(O)CN)ccc1O (racemic) [(±)-Normetanephrine hydrochloride] | -13.7 | -9.5 | -8 | 11.4 | 6.5 | 93.7 | 98.1 | 118 | 110 | 122 | – | – | – | – | –
COc1ccc2[nH]cc(CCN)c2c1 [O-Methylserotonin hydrochloride] | -25.1 | 0.5 | 10.8 | 19 | 3.7 | 94.1 | 65.2 | 105 | 124 | 81.4 | – | – | – | – | –
NCc1cc(O)no1 [Muscimol hydrobromide] | -0.4 | -18.8 | 4.1 | -7.6 | 8 | 120 | 103 | 105 | 115 | 108 | – | – | – | – | –
N[C@@H](CCl)C(=O)O [beta-Chloro-L-alanine hydrochloride] | -13.6 | -8.4 | -1.4 | -15.7 | -4.1 | 80.2 | 88.9 | 99.9 | 122 | 90.5 | – | – | – | – | –
Oc1ccc2c3c1O[C@H]1[C@@H](O)CC[C@@]4(O)[C@@H](C2)N(CC2CCC2)CC[C@]314 [Nalbuphine hydrochloride] | 7.1 | 3.2 | 2.3 | 17.1 | 11.2 | 122 | 108 | 74.4 | 79.6 | 124 | – | – | – | – | –
CCCN1CCC[C@@H](c2cccc(C#N)c2)C1 [S(-)-DS 121 hydrochloride] | -0.4 | 10.3 | 9.9 | -10.3 | -0.8 | 97.4 | 77.1 | 86.2 | 96.8 | 81.4 | – | – | – | – | –
COc1ccc2c(c1)[C@]13CCCC[C@@H]1[C@H](C2)N(C)CC3 [Dextromethorphan hydrobromide monohydrate] | 2.1 | -4.3 | -2.5 | 3.1 | 10.4 | 104 | 69.7 | 90.9 | 89.7 | 72.3 | – | – | – | – | –
CC1=C[C@@H]2c3cccc4[nH]cc(c34)C[C@H]2N(C)C1 [Agroclavine] | -25.3 | -14.4 | -27.2 | -14.8 | -13.9 | 87.7 | 111 | 104 | 75.8 | 86.9 | – | – | – | – | –
O=[N+]([O-])c1cc(O)c(O)c([N+](=O)[O-])c1 [3,5-Dinitrocatechol] | -8.8 | -6.8 | -2.5 | -16.6 | -8 | 85.6 | 91.3 | 106 | 111 | 104 | – | – | – | – | –
CC(C)NC(C)Cc1ccc(I)cc1 (stereo not given) [Iofetamine hydrochloride] | 8.1 | 3.2 | 15.5 | 8.6 | 12.1 | 92.8 | 104 | 93.4 | 100 | 120 | – | – | – | – | –
O=[N+]([O-])c1ccc(O[C@@H]2O[C@H](CO)[C@@H](O)[C@H](O)[C@H]2F)c([N+](=O)[O-])c1 [2,4-Dinitrophenyl 2-fluoro-2-deoxy-beta-D-glucopyranoside] | 18 | -11.1 | -18.1 | -1.3 | -5.6 | 102 | 103 | 112 | 117 | 120 | – | – | – | – | –
CC[C@@]1(O)C[C@H](O)c2c(cc3c(c2O)C(=O)c2c(O)ccc(O)c2C3=O)[C@H]1C(=O)OC | – | – | – | – | – | – | – | – | – | – | -15.6 | 8 | 40.5 | -9 | 7
O=C1CC[C@@]2(O)[C@H]3Cc4ccc(O)c5c4[C@@]2(CCN3CC2CC2)[C@H]1O5 [Naltrexone hydrochloride] | -19.4 | 14 | 20.2 | 7.6 | 9.3 | 100 | 113 | 86.4 | 132 | 107 | – | – | – | – | –
COc1ccccc1N1CCNCC1 [1-(2-Methoxyphenyl)piperazine hydrochloride] | -14 | -30.8 | -9.6 | 5.7 | 1.6 | 112 | 115 | 95 | 105 | 113 | – | – | – | – | –
Nc1ccncc1 [4-Aminopyridine] | 0.4 | -10.2 | -9.7 | -3.1 | 11.7 | 140 | 110 | 118 | 89.5 | 102 | – | – | – | – | –
